Measured values reported in PubChem BioAssay AID1508600 (Functional Genomics Laboratory (NCATS/FGL), 2020).
Out of some 53,000 sequences screened, about 3,700 (7%) were called active.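 Rule for the calls: active = gene knockdowns whose robust z-score for IL-1 alpha signal is at least 2 or at most -2, so actives lie on both sides; inactive = the rest.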 The list shows a part of the results.

assay: Components of the Cytosolic LPS Sensing Pathway: Gene Identification via Genome-wide siRNA Screen; details: RAW264.7 macrophages, IL-1a HTRF, actives lie on both sides, screened at 100 nM (by protocol), cells primed 5 h with Pam3CSK4 first;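 note: robust z of the log signal after scaling to non-targeting control siRNA wells of the plate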
Method in brief: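 Three distinct siRNAs per gene were tested singly at 100 nM in RAW264.7 macrophages. Following Pam3CSK4 priming and 24 hour LipidA transfection, IL-1a secretion was read by HTRF.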

| Sequence | z-score |
| --- | --- |
| GGCCCAGUUGAUCAGCUAUTT against Syne4 | inactive: 0.411 |
| GCCCUGAUGGACGAAUGAUTT against Dcaf10 | inactive: -0.555 |
| GGACUUUUUCAAAGGUUUUTT against Eif4g3 | active: 2.37 |
| GGAAUUUCACCUAAAUUGATT against Blzf1 | inactive: -1.06 |
| GCUGUGAACCUAGAGCGUGTT against Taco1 | inactive: -0.241 |
| GGAAUCGCUAUUUCUGAUATT against Sgk3 | inactive: 0.192 |
| GGUAUGACUUGCUCUUUAUTT against Rnpep | inactive: -0.881 |
| GGACAGCCGUGUAGUAACCTT against Cpne1 | inactive: -0.421 |
| GCUCUUCCGAUUAAUGCAGTT against Gabra6 | active: 2.87 |
| GGCUGGUGUAAAAGACACGTT against Nat14 | inactive: 0.142 |
| CCGGAGAUGUAAAUGCAAATT against Arl4d | inactive: 1.55 |
| GCGAUUACACCACAAACCATT against Cth | inactive: -1.67 |
| GGAUCUUUACAUCUCUAACTT against Krtap31-1 | inactive: 1.58 |
| GGCUUGGACAAUCUUAGUATT against Epdr1 | inactive: 0.0196 |
| CGGCCAACUUGCUCAAUGATT against Cnnm2 | inactive: 0.0888 |
| GGAGGUUGGGAUGAAUUAUTT against Rab6b | active: 4.26 |
| GAUUGGCAAUUGUGGCCAUTT against Defb4 | inactive: 1.1 |
| GCUAACUGAUACAUUAGAATT against Trim59 | inactive: 0.972 |
| GGCAGACAAUGCAGUUAACTT against Atp8a2 | inactive: 1.01 |
| GGUGCUGUCCAUGGUGAAGTT against St8sia5 | inactive: -1.33 |
| GGGCUUGUCUAGCCAUGCATT against Wiz | inactive: -1.13 |
| GGAACUUUAUAGUUAGUGCTT against Srsf6 | inactive: -0.176 |

| Sequence | z-score |
| --- | --- |
| GCUAACCAUAAGUCUGUUUTT against Trim16 | inactive: 1.16 |
| GGCAGUUUUGGGAUUGUUUTT against E4f1 | inactive: 0.627 |
| GGACUUCAUAUUAGCAUGUTT against Plbd2 | inactive: -1.27 |
| CCCAAUACAUAUGUUAAGUTT against Syt14 | inactive: 0.623 |
| GAGAACUGCUACGACUCUGTT against Coro2a | inactive: 1.43 |
| GGGAGAUUCUAUGAGGACUTT against Depdc5 | inactive: -0.0963 |
| CACGCAGAUGAUUAAGUUGTT against Olfr1000 | inactive: 1.25 |
| CCUUGCCAAGACAGAAUAUTT against Pramel3 | inactive: 0.682 |
| GUGAGUAGGUAGGAAGCAUTT against Cd200r2 | active: -2.56 |
| CCUCUGGAUCUACGAGCUGTT against Odf4 | inactive: -0.00669 |
| GGUUUUCAGCUGCAUCAUGTT against Olfr303 | inactive: -0.0656 |
| GGUGGCAGACUGUGUUUAUTT against B3gnt8 | active: -2.08 |
| GGAUUGCCCUGUGGACAAGTT against Nr4a1 | inactive: 0.963 |
| GUGUGGCUCUUAUGUACCUTT against Olfr427 | inactive: 1.26 |
| GAAAUGUGGAAAGACACUGTT against Crip1 | inactive: 0.586 |
| GGCAAAGGAUAGUGGACAATT against Clic1 | inactive: 0.48 |
| GCACAUUUAACUUCAGUCATT against Tg | inactive: -0.207 |
| GGCAGGAAAACUGCCAAUGTT against Gm6034 | inactive: 1.36 |
| GCAUGUUUCUAAACUUAGUTT against Sh3rf2 | inactive: -0.432 |
| GCUACAGUGGGACUUAGGATT against Arhgef40 | inactive: -0.403 |
| GGGAGAGCGAGGAAGAUAATT against Sox9 | inactive: -0.205 |
| GGACUUUGUGAUCUUUCCATT against Pias2 | inactive: -0.57 |

No new results follow: an excerpt of the list.

| Sequence | z-score |
| --- | --- |
| CCUCUGGAUCUACGAGCUGTT against Odf4 | inactive: -0.00669 |
| GGUUUUCAGCUGCAUCAUGTT against Olfr303 | inactive: -0.0656 |
| GGUGGCAGACUGUGUUUAUTT against B3gnt8 | active: -2.08 |
| GGAUUGCCCUGUGGACAAGTT against Nr4a1 | inactive: 0.963 |
| GUGUGGCUCUUAUGUACCUTT against Olfr427 | inactive: 1.26 |

(further entries)

| Sequence | z-score |
| --- | --- |
| GGAAACAGAACAGAUAUUUTT against Chd6 | inactive: 0.111 |
| GCUACUAACCAUCGGCUUCTT against 1700067K01Rik | inactive: 1.51 |
| GGCGACGUACCAUCACCUATT against Senp3 | inactive: 0.143 |
| GGAGGACCAUUGUAAGUAGTT against 9930022D16Rik | active: 2.17 |
| GGAGAAAAGGUGUUUCGACTT against Asap3 | inactive: -0.461 |
| UCUCAAAGACGAAUAUCAUTT against Olfr875 | inactive: -0.113 |
| GCACAUUGUCUAGUAGUAATT against Zfp280d | inactive: -0.622 |
| GGAGUACGACUACUACGGUTT against Sfrp5 | inactive: 0.83 |
| GCUGACUCAUACGAAAAACTT against Cdk14 | inactive: -0.535 |
| GGACUCAGCAACAGGUCUUTT against Olfr544 | inactive: -0.833 |
| GGUACGCAUUCCACAGUUCTT against Tbx10 | inactive: 1.31 |
| CGAGAUUGGAGUCAUGUUUTT against Adcy3 | inactive: 0.67 |
| GGAUAUGCAGUGGAACUAUTT against Heph | active: -2.13 |
| GGUACACCCUAGGAAAGAUTT against Pbxip1 | inactive: 0.721 |
| CCGUAGAAAUACCAUAGACTT against Cables1 | inactive: -0.137 |
| GGCAGUUAAUUUCUUUGGATT against Ica1 | inactive: 0.789 |
| GCUAUUAGGAAAUGAAAGATT against Ncald | inactive: 0.384 |
| CCCUCUUUUCGUUUUCUACTT against 1700129C05Rik | inactive: 0.321 |
| GGCAGGACAAAACACCAAATT against Hirip3 | inactive: -0.427 |
| CGGACAAGUGUUUUUCGUUTT against Wwox | inactive: 0.315 |
| GGGUUCUAUAGUCUCCACCTT against Hbq1b | inactive: -1.01 |
| GGCACAGCAGUCUUGAGCUTT against Retn | inactive: 0.342 |

| Sequence | z-score |
| --- | --- |
| GGAUUCAAAUGUUCAAAGGTT against Il27 | inactive: 0.313 |
| CCUACAUUCCAUUUUAAUGTT against Hydin | inactive: -0.971 |
| GGUGGAGAACUAUUACAGCTT against Myf5 | inactive: -0.144 |
| GGAUAACGUAAUGAAGAUCTT against Fgfr1 | inactive: -0.866 |
| GGAAUUUGAUUCUGAAGAATT against Gmnn | inactive: -0.874 |
| GCUAUGAACUCCACAUCUATT against Mov10 | inactive: -0.109 |
| CCUAAGACGUGGACUGGUGTT against Zfp563 | inactive: -0.176 |
| AGCCGAUCCUGUGCCUGUUTT against Dnph1 | inactive: 0.592 |
| CGCAGACAAGCAAGAAGUATT against Olfr735 | inactive: 0.0417 |
| GCGUGGAAGGUCUGAACACTT against Arfgap3 | active: 4.18 |
| GGUCUAUGAAGAGAAGACUTT against Mtres1 | inactive: 0.8 |
| GGUUAUCACAGAAGACUUATT against Clic6 | inactive: -0.116 |
| GCCGUUGGAUCCCAUAUCATT against Ccdc181 | inactive: 0.295 |
| UAUGACUCCACUCUUCUCUTT against Olfr1158 | active: -2 |
| GGACAGGACCAAAAGGACUTT against Klk4 | inactive: -1.94 |
| GGUAUGUUUUAUCUUGACATT against Olfr851 | inactive: 0.269 |
| GGUUUGGCCAUCUCCUAUGTT against Mfsd10 | inactive: -0.661 |
| GGACUCUGCUAGGAAGACATT against Fstl4 | inactive: 1.95 |
| CCUUUGUGCAAUGCUACACTT against Actl11 | inactive: 0.244 |
| GCUUAAGCAGAAUGGUGCUTT against Arid3b | inactive: 0.329 |
| GGAGACAAAUAUGAUGUAUTT against Hook1 | inactive: -0.507 |
| GGAACCUGAUCCACUACUATT against H2-Bl | inactive: -0.407 |

| Sequence | z-score |
| --- | --- |
| GCCACACCAAUAGAAGUGUTT against Csnk1g3 | active: -2.42 |
| GCCGAAAUUGUGUCUCUGUTT against Insig1 | inactive: 0.167 |
| GGAAAUAAGACUCAGGUCATT against Gtf2a1 | inactive: 0.749 |
| GGUAAGCUAAAUGAAAUGGTT against Rbbp8 | inactive: -0.134 |
| GGCCUUCAAGGUAUUCGACTT against Cabp7 | inactive: -0.98 |
| GGAUCCCAUUAGAAAGAAATT against Cbx2 | inactive: 0.316 |
| CCCAUGAACAUUCCCUUAATT against Prdx1 | inactive: -0.373 |
| GGAUAAAGGCAAAGACAAATT against Rsrc1 | inactive: 0.891 |
| GGAGAAGCAAACUGCACCUTT against Cacng6 | inactive: 1.08 |
| GGUGUAGCUCUUGAUUAAUTT against Icmt | inactive: 1.27 |
| GCUUCAUAUAGACAAAGCCTT against Epo | inactive: -0.625 |
| CCAUUCCUGGAGAUGGUUGTT against 5031410I06Rik | inactive: -0.0791 |
| CCCUGAACGCAUCACUAUCTT against Nlgn2 | inactive: -0.773 |
| GGUUGAAAAGUAUCAAAGATT against Pus7l | inactive: -0.359 |
| GGACCUUCUUUGAACAUAATT against Eno4 | inactive: -0.144 |
| GGCUCAGUACUUUCUAAAATT against Vmn1r72 | inactive: -0.637 |
| GGAGAUACGGGACAGAGUGTT against Olfr655 | inactive: -0.181 |
| GGAACCAGAGACAUUGUUUTT against Pola2 | inactive: 1.62 |
| GGCCAUCAGAGCUACACUUTT against Gpa33 | inactive: 0.806 |

Some of the entries above, set out differently.
Sequence | z-score
GGAGAAAAGGUGUUUCGACTT against Asap3 | inactive: -0.461
UCUCAAAGACGAAUAUCAUTT against Olfr875 | inactive: -0.113
GCACAUUGUCUAGUAGUAATT against Zfp280d | inactive: -0.622
